The experiment deals with HAHA-14-3-3ε (UniProt P62259). Description: co-IP.

Protein sequences, listed by entry. Tags and fused reporters are not part of them.
UniProt P62259: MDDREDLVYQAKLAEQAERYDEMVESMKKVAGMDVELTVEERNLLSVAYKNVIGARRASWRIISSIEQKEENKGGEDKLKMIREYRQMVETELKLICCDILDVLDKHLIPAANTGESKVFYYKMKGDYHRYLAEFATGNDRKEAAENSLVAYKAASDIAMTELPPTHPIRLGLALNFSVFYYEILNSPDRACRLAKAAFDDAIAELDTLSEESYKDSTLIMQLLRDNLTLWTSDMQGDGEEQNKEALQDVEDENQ

Results are given in words; binding and its absence hold for the method and conditions named. In cells and extracts the contact can be indirect. Some entries that bind do so weakly or less than the wild type. Tags and fused reporters may be left off the sequences shown.

B1: Activity-dependent neuroprotective protein (Adnp), 6xHis-tagged (protein, UniProt Q9Z103 1-1108)
chain: MFQLPVNNLGSLRKARKTVKKILSDIGLEYCKEHIEDFKQFEPNDFYLKNTTWEDVGLWDPSLTKNQDYRTKPFCCSACPFSSKFFSAYKSHFRNVHSEDFENRILLNCPYCTFNADKKTLETHIKIFHAPNSSAPSSSLSTFKDKNKNDGLKPKQADNVEQAVYYCKKCTYRDPLYEIVRKHIYREHFQHVAAPYIAKAGEKSLNGAVSLGTNAREECNIHCKRCLFMPKSYEALVQHVIEDHERIGYQVTAMIGHTNVVVPRAKPLMLIAPKPQDKKGMGLPPRISSLASGNVRSLPSQQMVNRLSIPKPNLNSTGVNMMSNVHLQQNNYGVKSVGQSYGVGQSVRLGLGGNAPVSIPQQSQSVKQLLPSGNGRSFGLGAEQRPPAAARYSLQTANTSLPPGQVKSPSVSQSQASRVLGQSSSKPPPAATGPPPSNHCATQKWKICTICNELFPENVYSVHFEKEHKAEKVPAVANYIMKIHNFTSKCLYCNRYLPTDTLLNHMLIHGLSCPYCRSTFNDVEKMAAHMRMVHIDEEMGPKTDSTLSFDLTLQQGSHTNIHLLVTTYNLRDAPAESVAYHAQNNAPVPPKPQPKVQEKADVPVKSSPQAAVPYKKDVGKTLCPLCFSILKGPISDALAHHLRERHQVIQTVHPVEKKLTYKCIHCLGVYTSNMTASTITLHLVHCRGVGKTQNGQDKTNAPSRLNQSPGLAPVKRTYEQMEFPLLKKRKLEEDADSPSCFEEKPEEPVVLALDPKGHEDDSYEARKSFLTKYFNKQPYPTRREIEKLAASLWLWKSDIASHFSNKRKKCVRDCEKYKPGVLLGFNMKELNKVKHEMDFDAEWLFENHDEKDSRVNASKTVDKKHNLGKEDDSFSDSFEHLEEESNGSGSPFDPVFEVEPKIPSDNLEEPVPKVIPEGALESEKLDQKEEEEEEEEEDGSKYETIHLTEEPAKLMHDASDSEVDQDDVVEWKDGASPSESGPGSQQISDFEDNTCEMKPGTWSDESSQSEDARSSKPAAKKKATVQDDTEQLKWKNSSYGKVEGFWSKDQSQWENASENAERLPNPQIEWQNSTIDSEDGEQFDSMTDGVADPMHGSLTGVKLSSQQA
Consider B1, for which the binding result was “binds”.

The values above are taken from article doi:10.1101/2020.05.26.105015.
